Results: PMC13248703
Results are given in words; binding and its absence hold for the method and conditions named. Binding seen in cells or lysates may run through a third protein. Some binding calls cover weakened binding; strength is not graded here.

Sequences of proteins named here, by UniProt entry; tags and fusion partners are left off. A change or cut given only in a name is not applied to a line headed by its entry. A line that says so, or that is headed by a name, gives the form on record, which may keep a tag or linker. Residues count along the entry.
VCP ΔC (deletion of amino acids 763 to 806) (P55072, residues 1-762): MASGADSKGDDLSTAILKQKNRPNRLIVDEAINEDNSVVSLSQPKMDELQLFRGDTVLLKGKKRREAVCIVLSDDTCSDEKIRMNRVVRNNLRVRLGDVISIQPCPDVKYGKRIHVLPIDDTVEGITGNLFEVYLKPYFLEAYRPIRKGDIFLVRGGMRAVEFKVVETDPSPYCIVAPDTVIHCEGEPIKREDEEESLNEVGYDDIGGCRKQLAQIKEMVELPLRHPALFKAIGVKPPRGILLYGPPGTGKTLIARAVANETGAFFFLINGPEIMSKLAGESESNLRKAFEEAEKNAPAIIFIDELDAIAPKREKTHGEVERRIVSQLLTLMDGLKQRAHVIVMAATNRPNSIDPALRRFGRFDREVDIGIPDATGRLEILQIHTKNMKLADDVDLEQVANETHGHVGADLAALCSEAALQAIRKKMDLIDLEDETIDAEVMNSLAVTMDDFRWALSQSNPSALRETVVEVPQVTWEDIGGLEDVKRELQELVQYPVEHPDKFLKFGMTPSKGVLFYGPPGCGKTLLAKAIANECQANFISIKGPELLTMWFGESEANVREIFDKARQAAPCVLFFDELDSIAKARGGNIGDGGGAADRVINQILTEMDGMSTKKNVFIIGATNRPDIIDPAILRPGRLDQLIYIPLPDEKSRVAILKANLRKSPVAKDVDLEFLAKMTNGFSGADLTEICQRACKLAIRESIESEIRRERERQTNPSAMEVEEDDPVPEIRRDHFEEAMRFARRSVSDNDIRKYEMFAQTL
VCP ΔN (deletion of amino acids 1 to 184) (P55072, residues 185-806): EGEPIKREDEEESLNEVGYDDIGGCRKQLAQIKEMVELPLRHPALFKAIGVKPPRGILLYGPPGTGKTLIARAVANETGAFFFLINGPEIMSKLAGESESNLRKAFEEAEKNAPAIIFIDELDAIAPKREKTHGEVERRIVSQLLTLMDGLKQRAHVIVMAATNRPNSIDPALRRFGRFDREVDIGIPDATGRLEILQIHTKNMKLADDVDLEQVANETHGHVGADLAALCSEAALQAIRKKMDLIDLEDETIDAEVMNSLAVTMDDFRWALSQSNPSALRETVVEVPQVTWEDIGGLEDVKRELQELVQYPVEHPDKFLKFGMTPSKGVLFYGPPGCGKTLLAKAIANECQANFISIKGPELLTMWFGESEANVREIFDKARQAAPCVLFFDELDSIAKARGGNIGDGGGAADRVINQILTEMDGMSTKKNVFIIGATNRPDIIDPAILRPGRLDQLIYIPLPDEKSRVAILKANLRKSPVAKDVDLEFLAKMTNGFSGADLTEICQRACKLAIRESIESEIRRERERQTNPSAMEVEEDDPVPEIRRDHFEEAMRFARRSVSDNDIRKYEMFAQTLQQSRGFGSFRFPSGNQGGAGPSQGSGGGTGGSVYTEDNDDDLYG
VCP ΔD2 (deletion of amino acids 482 to 762) (P55072, form named): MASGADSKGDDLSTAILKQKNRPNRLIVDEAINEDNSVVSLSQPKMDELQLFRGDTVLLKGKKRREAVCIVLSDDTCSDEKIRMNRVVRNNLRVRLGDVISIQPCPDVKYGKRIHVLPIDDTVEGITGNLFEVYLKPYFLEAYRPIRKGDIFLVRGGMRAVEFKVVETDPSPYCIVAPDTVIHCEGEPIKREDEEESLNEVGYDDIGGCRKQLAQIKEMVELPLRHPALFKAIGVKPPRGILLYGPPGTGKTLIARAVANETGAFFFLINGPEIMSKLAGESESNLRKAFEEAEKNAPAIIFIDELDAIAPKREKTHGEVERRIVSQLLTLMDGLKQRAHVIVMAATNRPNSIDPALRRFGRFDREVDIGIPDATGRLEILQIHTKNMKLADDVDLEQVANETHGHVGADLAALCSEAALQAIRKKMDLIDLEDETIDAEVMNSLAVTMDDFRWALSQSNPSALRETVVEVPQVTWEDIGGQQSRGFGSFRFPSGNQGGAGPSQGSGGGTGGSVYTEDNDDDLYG
VCP ΔD1 (deletion of amino acids 210 to 463) (P55072, form named): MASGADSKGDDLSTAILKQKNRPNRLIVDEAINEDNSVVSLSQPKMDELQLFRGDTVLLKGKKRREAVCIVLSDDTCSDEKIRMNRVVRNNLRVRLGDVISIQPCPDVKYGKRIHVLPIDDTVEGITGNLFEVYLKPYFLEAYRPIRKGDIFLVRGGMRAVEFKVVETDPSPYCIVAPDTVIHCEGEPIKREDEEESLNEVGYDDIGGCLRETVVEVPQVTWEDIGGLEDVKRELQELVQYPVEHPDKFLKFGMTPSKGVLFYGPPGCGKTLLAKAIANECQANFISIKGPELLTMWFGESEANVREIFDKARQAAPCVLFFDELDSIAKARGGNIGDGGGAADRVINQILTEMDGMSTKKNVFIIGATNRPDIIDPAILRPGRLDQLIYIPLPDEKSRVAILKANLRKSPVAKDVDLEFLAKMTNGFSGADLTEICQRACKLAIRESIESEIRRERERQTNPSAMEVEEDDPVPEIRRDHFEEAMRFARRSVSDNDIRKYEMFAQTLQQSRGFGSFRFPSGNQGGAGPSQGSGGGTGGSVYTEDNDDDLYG
UniProt O95139: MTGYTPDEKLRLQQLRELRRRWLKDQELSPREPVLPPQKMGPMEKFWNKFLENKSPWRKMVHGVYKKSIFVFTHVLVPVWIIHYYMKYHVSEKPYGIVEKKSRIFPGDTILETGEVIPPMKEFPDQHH

What was measured:
[1] = biological target: VCP ΔD2 (deletion of amino acids 482 to 762) (human) (UniProt P55072); assay: co-IP; cells with plasmids of VCP WT or truncation mutants (ΔN, ΔD1, ΔD2, ΔC); SIA-IgG and NDUFB6 detected by western blot; RIPA lysate, protein A/G beads
[2] = biological target: wild-type VCP (plasmid, 806 amino acids) (human) (UniProt P55072); assay: as above
[3] = biological target: VCP ΔD1 (deletion of amino acids 210 to 463) (human) (UniProt P55072); assay: as above
[4] = biological target: VCP ΔN (deletion of amino acids 1 to 184) (human) (UniProt P55072); assay: as above
[5] = biological target: VCP ΔC (deletion of amino acids 763 to 806) (human) (UniProt P55072); assay: as above
[6] = biological target: valosin-containing protein (human (endogenous in OSCC cells)) (UniProt P55072); assay: co-IP; endogenous proteins of OSCC cells; RIPA lysate with protease inhibitors, primary antibody overnight at 4 °C, protein A/G beads 2 h at 4 °C, western blot; mIgG and RIgG as controls; also done with anti-VCP on cells with or without SIA-IgG knockdown (VCP-NDUFB6 binding weakened by the knockdown)

binding [1]: binds | binding [2]: binds | binding [3]: binds | binding [4]: binds | binding [5]: binds | binding [6]: binds
Substance: NADH:ubiquinone oxidoreductase subunit B6 (from UniProt O95139 1-128)
